According to paper doi:10.1101/765735:
Results are given in words; binding and its absence hold for the method and conditions named. In cells and extracts the contact can be indirect. Some entries that bind do so weakly or less than the wild type.

Sequences of proteins named here, by UniProt entry; tags and fusion partners are left off. Residues count along the entry.
UniProt P08543, residues 2-1137: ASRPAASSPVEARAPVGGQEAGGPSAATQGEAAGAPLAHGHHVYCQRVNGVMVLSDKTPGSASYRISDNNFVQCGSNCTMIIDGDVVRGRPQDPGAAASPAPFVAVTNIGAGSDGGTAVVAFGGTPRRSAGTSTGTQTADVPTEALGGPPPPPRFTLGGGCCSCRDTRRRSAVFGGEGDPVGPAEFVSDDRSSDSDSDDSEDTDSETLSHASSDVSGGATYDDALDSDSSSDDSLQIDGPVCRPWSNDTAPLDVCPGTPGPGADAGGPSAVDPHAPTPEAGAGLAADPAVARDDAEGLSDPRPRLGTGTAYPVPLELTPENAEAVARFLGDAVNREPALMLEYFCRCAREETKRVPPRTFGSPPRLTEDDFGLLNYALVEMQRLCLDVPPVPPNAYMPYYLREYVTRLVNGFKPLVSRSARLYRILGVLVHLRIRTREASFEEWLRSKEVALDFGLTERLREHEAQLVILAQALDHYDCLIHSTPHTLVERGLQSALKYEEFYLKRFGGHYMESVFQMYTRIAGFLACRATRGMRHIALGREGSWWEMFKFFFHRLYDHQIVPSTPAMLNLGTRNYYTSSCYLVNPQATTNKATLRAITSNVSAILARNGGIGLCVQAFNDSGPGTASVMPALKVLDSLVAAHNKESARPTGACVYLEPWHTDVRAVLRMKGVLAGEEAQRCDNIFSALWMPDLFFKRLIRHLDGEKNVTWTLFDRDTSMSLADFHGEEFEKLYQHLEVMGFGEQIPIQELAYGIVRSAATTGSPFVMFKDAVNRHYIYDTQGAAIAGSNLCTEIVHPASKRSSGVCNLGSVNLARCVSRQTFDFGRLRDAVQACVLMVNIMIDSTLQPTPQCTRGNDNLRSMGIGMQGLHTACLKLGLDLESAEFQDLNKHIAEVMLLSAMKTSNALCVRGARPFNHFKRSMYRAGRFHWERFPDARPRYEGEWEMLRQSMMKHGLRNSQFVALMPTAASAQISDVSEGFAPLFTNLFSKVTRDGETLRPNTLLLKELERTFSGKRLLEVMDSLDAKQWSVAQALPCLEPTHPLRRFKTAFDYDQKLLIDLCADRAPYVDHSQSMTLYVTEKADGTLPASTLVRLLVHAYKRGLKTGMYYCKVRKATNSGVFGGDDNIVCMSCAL
UniProt Q2HR67: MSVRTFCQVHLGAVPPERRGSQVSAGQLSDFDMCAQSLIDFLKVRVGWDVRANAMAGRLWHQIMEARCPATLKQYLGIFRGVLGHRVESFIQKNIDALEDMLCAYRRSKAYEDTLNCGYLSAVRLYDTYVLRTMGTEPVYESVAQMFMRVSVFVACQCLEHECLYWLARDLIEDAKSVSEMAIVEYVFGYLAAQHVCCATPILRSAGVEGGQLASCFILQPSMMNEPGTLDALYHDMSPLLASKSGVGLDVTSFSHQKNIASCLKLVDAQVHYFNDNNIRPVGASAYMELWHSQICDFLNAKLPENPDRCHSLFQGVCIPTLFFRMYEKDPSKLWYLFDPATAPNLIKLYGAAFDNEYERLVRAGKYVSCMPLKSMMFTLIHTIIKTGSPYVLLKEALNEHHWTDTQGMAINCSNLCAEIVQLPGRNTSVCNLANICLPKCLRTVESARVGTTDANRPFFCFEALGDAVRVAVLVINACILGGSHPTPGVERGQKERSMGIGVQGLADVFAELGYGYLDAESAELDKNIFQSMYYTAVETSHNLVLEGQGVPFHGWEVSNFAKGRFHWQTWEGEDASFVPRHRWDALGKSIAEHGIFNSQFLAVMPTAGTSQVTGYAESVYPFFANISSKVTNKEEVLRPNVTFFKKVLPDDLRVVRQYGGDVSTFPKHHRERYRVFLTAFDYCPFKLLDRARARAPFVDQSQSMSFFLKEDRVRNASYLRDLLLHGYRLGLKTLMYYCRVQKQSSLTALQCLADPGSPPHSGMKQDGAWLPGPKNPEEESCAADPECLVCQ
UniProt Q9NRW3: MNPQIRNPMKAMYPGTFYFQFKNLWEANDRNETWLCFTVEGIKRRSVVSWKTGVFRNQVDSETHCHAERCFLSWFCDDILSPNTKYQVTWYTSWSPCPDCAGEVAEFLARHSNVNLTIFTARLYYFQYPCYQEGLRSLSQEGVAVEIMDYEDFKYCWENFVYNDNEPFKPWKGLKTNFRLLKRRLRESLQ
UniProt Q96AK3: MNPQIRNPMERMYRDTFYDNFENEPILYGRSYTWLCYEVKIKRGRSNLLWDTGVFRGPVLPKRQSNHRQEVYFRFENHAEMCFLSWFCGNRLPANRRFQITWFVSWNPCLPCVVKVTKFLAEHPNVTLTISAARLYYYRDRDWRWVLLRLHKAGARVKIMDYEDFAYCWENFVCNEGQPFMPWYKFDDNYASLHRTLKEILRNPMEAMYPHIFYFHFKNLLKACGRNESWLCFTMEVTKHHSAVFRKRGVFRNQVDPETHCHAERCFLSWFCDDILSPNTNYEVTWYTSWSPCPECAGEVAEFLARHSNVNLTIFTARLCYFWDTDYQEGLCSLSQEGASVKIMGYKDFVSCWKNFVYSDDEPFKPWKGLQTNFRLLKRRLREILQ

Columns and labels:
[1] = target: HSV-1 FLAG-ICP6 (large subunit of the HSV-1 ribonucleotide reductase) (HSV-1) (UniProt P08543); experiment: co-IP
[2] = target: KSHV ORF61-FLAG (large subunit of the KSHV ribonucleotide reductase) (KSHV) (UniProt Q2HR67); experiment: co-IP

Substance	binding [1]	binding [2]
human APOBEC3A-HA (from UniProt P31941-1 1-199) (enzyme)	binds	binds
human APOBEC3B-HA (from UniProt Q9UH17-1 1-382) (enzyme)	binds weakly	binds
human APOBEC3C-HA (from UniProt Q9NRW3 1-190) (enzyme)	binds weakly	–
human APOBEC3D-HA (from UniProt Q96AK3 1-386) (enzyme)	binds weakly	binds weakly
human APOBEC3F-HA (from UniProt Q8IUX4-1 1-373) (enzyme)	–	binds weakly
